Results of single-concentration screens

Protein sequences, listed by entry. Tags and fused reporters are not part of them.
UniProt P9WPC5, whole entry: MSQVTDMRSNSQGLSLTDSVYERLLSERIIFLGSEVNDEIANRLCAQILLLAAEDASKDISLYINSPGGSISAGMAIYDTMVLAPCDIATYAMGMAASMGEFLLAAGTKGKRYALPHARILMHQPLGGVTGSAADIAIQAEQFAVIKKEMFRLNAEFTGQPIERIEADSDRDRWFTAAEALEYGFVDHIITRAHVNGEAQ
UniProt P9WPC3, whole entry partner: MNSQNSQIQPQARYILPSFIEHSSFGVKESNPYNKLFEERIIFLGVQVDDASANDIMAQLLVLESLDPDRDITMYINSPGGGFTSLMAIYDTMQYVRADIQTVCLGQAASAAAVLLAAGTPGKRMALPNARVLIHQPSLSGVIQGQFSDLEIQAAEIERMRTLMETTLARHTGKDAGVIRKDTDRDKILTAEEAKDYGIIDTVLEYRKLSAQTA
UniProt P9WNZ1, whole entry: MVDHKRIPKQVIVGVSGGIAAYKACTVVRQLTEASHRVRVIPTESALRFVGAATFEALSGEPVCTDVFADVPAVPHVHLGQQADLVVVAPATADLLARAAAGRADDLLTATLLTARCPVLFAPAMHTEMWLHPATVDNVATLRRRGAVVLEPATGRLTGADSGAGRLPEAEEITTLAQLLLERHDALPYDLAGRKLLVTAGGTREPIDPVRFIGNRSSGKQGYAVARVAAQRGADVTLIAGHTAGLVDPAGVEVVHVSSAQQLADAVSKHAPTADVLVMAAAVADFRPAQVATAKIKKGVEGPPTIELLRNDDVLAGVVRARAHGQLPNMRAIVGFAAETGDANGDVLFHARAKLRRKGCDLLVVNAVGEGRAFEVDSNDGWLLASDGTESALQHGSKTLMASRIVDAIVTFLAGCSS

The values are deposited in ChEMBL (CHEMBL3988442, “University of Dundee, Small-Polar-MMV Screening Library” (2021)).

Toxoplasma: 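Assay of Toxoplasma gondii numbers, read through their beta-galactosidase reporter with a colour substrate. Tested at 10 µM. Higher reads as fewer parasites (inferred from which compounds were picked for retests). About 67,000 compounds were tested under these conditions; 0.38% (about 260) showed 50% or more at least once.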
ClpP1P2: 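ClpP1P2, Mycobacterium tuberculosis (UniProt P9WPC5 and UniProt P9WPC3). Protease assay of ClpP1P2, read by the AMC dye that it sets free. Concentration: 50 µM. Direction is inferred from only a few compounds that gave an IC50; most scored high, so higher reads as stronger inhibition. Most other retested compounds had strongly negative values. Of about 69,000 compounds tested this way, about 10 (0.015%) reached 50% or more in at least one test.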
T. brucei: 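Whole-parasite assay of Trypanosoma brucei over 72 hours; the read-out is not stated. Concentration: 30 µM. The record gives no direction; compounds that gave an IC50 in retests scored well above the rest, so higher reads as stronger inhibition. Values scatter widely below zero; nearly all retest evidence comes from the higher of the two concentrations used. Size under these conditions: about 64,000 compounds, about 940 of them at 50% or above in at least one test.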
CoaBC: 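Coenzyme A biosynthesis protein CoaBC, Mycobacterium tuberculosis (UniProt P9WNZ1). Enzyme assay of CoaBC with a phosphate dye (Biomol Green) read at 650 nm. Concentration: 30 µM. Direction is inferred from only a few compounds that gave an IC50; most scored high, so higher reads as stronger inhibition. Most strong results did not repeat in a second test. Size under these conditions: about 67,000 compounds, about 40 of them at 50% or above in at least one test.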

The filed quantity is “Percent Effect” (%).
The controls that fix the scale are not given in the record; negative values are as filed.
This is an unselected part of the compounds tested.
Two or more numbers in one place are separate tests of the same structure; such repeats can differ widely.
A dash means the value is not listed here; it may have been measured.

For CCc1noc(C(C)N(C)CC(=O)Nc2ccccc2Cl)n1 (centres unmarked) the result was Toxoplasma: 4.13%; ClpP1P2: -9.39%; T. brucei: -30.96%; CoaBC: 1.665%.
For O=C(CN1CCN(C(=O)c2ccccc2)CC1)Nc1ncc(Br)cc1Br the result was Toxoplasma: 15.77%; ClpP1P2: -1.997%; T. brucei: -4.771%; CoaBC: 8.763% & 20.83%.
For CN(Cc1nc2ccccc2n1C)CC1CCCN1c1cccnn1 (centres unmarked) the result was Toxoplasma: -0.2316%; ClpP1P2: -16.12%; T. brucei: 23.24%; CoaBC: -14.9%.
For Cc1cc(C)nc(Nc2nccnc2C2CCCN(CCO)C2)n1 (centres unmarked) the result was Toxoplasma: -7.287%; ClpP1P2: -24.27%; T. brucei: -9.078%; CoaBC: 2.74%.
For CCn1cnnc1CNC(=O)NC(C)c1ccccn1 (centres unmarked) the result was Toxoplasma: -21.6%; ClpP1P2: -21.31%; T. brucei: -3.5%; CoaBC: -0.2273%.
For CC(=O)N1CCC2(CC1)C(=O)N(CC1CCN(C)CC1)c1ccccc12 the result was ClpP1P2: -7.412%; CoaBC: 0.9009%.
For CC(C)N(C)S(=O)(=O)N1CCN(Cc2ccco2)CC1 the result was Toxoplasma: 5.756%; ClpP1P2: 1.689%; T. brucei: -22.42%; CoaBC: 0%.
For CC1c2ncc(CN3CCN(C)CC3)n2CCN1Cc1cnn(C)c1.O=C(O)C(F)(F)F.O=C(O)C(F)(F)F.O=C(O)C(F)(F)F (centres unmarked) the result was Toxoplasma: 9.061%; T. brucei: -59.23%.
For Cc1ccc(C(=O)N(C)Cc2ccc(Br)o2)c(=O)[nH]1 the result was Toxoplasma: -32.07%; ClpP1P2: -11.74%; T. brucei: -12.94%; CoaBC: -0.361%.
For CC(NC(=O)c1cnccn1)c1nnc2ccccn12 (centres unmarked) the result was Toxoplasma: -1.55%; ClpP1P2: 11.72%; T. brucei: -74.35%; CoaBC: 4.752%.
For Cn1cc(N2CCN(c3ccc(C#N)c(Cl)c3)CC2=O)cn1 the result was Toxoplasma: 14.98%; ClpP1P2: -4.635%; T. brucei: -33.75%; CoaBC: 6.012%.
For CC(=O)N(Cc1ncc(C)o1)C1CCN(Cc2nnc(C3CC3)o2)C1 (centres unmarked) the result was Toxoplasma: 13.06%; ClpP1P2: 4.841%; T. brucei: -37.46%; CoaBC: 5.598%.
For CN(Cc1ccc(N(C)C)cc1)C(=O)CS(=O)(=O)c1ccc(Cl)cc1 the result was Toxoplasma: -2.655%; ClpP1P2: -7.091%; T. brucei: -42.14%; CoaBC: -2.885%.
For CNC(=O)c1cccc(CN2CCN(c3ccncc3)CC2)c1 the result was ClpP1P2: -3.283%; T. brucei: -5.088%; CoaBC: -0.6075%.
For CN(CC1CCOCC1)C(C(=O)O)c1cccc(F)c1F (centres unmarked) the result was Toxoplasma: 6.383%; ClpP1P2: -4.644%; T. brucei: -18.13%; CoaBC: 3.609%.
For COCCN(C)C(=O)Nc1ccc2c(ccn2CCOC)c1 the result was Toxoplasma: -0.8547%; ClpP1P2: -7.279%; T. brucei: 4.19%; CoaBC: 4.993%.
For COc1c(C2CCCN2C(=O)c2c(C)noc2C)c(C)nn1C (centres unmarked) the result was Toxoplasma: 5.187%; ClpP1P2: -23.7%; CoaBC: 2.887%.
For COCC(Nc1nc(N(C)C)nc2c1CCNCC2)c1ccccn1 (centres unmarked) the result was Toxoplasma: 6.816%; ClpP1P2: -13.13%; T. brucei: -2.874%; CoaBC: 1.781%.
For Cc1ccccc1C1CCN(CCn2cc(-c3nccn3C)nn2)C1 (centres unmarked) the result was Toxoplasma: 2.982%; ClpP1P2: -7.952%; T. brucei: -21.48%.
For CCO[C@@H]1CO[C@@]2(CCCN(Cc3scnc3C)C2)C1 the result was ClpP1P2: 0.669%; CoaBC: -3.656%.
For O=C(NCCCc1ccncc1)C1CCCN(Cc2ccco2)C1 (centres unmarked) the result was Toxoplasma: -0.5507%; ClpP1P2: 6.294%; T. brucei: -29.37%; CoaBC: -4.464%.
For CCCn1cnnc1CNC1CCCC1 the result was Toxoplasma: 2.3%; ClpP1P2: 8.624%; T. brucei: -32.54%; CoaBC: 1.606%.
For COCCCNC(=O)C1CN(C(=O)c2cnccn2)C1 the result was Toxoplasma: 18.92%; ClpP1P2: 5.663%; T. brucei: 16.37%; CoaBC: 9.937%.
For [H][C@@]12CCN(C(=O)c3c(C)noc3C)C[C@@]1([H])O[C@H](c1ccncn1)C2 the result was Toxoplasma: 4.909%; T. brucei: 13.05%.
For CN(Cc1cc(Br)cn1C)C(=O)c1cscn1 the result was Toxoplasma: 6.664%; ClpP1P2: 11.89%; T. brucei: -13.49%; CoaBC: -2.236%.
For Cc1nnc(N2CCCC3(CN(c4ccccn4)CCO3)C2)o1 (centres unmarked) the result was ClpP1P2: 2.334%; CoaBC: -1.609%.
For CSCc1cccc(S(=O)(=O)N2CCCCCC2)c1 the result was Toxoplasma: 9.36%; ClpP1P2: 0.8673%; T. brucei: -10.52%; CoaBC: 3.695%.
For CCOc1cccc(CN2CCCC(Nc3ccc(F)cc3)C2)c1O (centres unmarked) the result was Toxoplasma: 25.68%; ClpP1P2: -1.531%; T. brucei: 5.053%; CoaBC: -4.292%.
For C[C@@H]1CN(S(=O)(=O)c2ccc(F)cc2F)C[C@]1(C)O the result was Toxoplasma: -1.642%; ClpP1P2: -7.047%; T. brucei: -14.07%; CoaBC: 5.934%.
For Cc1ccc(CN2C(=O)CC[C@]23CC[C@@H](NCC2CCOC2)CC3)cc1.O=C(O)C(F)(F)F (some centres unmarked) the result was Toxoplasma: 3.256%; T. brucei: -13.39%.
For Cc1nc(NCC2CC2)nc2c1COCC21CCN(S(=O)(=O)C2CC2)C1 (centres unmarked) the result was Toxoplasma: -14.56%; ClpP1P2: 4.82%; T. brucei: -319%; CoaBC: 1%.
For CN1CCN(Cc2ccoc2)Cc2cccnc21 the result was Toxoplasma: -13.55%; ClpP1P2: -16.85%; T. brucei: -15.87%; CoaBC: 2.188%.
For O=C(O)C(F)(F)F.O=C(O)C(F)(F)F.[H][C@@]12CCN(Cc3ccc(F)cc3)[C@]1([H])CC[C@H](COCc1cccnc1)O2 the result was Toxoplasma: -5.059%; T. brucei: -21.49%.

Some entries from above, unchanged:

| SMILES | Toxoplasma | ClpP1P2 | T. brucei | CoaBC |
|---|---|---|---|---|
| `CNC(=O)c1cccc(CN2CCN(c3ccncc3)CC2)c1` | - | -3.283 | -5.088 | -0.6075 |
| `Cc1ccccc1C1CCN(CCn2cc(-c3nccn3C)nn2)C1` (centres unmarked) | 2.982 | -7.952 | -21.48 | - |
| `CC1c2ncc(CN3CCN(C)CC3)n2CCN1Cc1cnn(C)c1.O=C(O)C(F)(F)F.O=C(O)C(F)(F)F.O=C(O)C(F)(F)F` (centres unmarked) | 9.061 | - | -59.23 | - |